Data reported in patent publication US20230129084A1, “COMPOSITE IMPLANTS” (Re-Vana Therapeutics Ltd., priority 2015, published 2023).
At least one compound was matched to its structure with a doubt left.

Legend:
[1] = In vitro drug release from in situ photocrosslinked implants (ISPcI) in PBS; conditions: all UV crosslinking times
[2] = In vitro drug release from preformed photocrosslinked implants (PPcI) in PBS; assay type: physicochemical; conditions: for TA released: 5 runs; for TA release: 2.5% w/w PLGA 75/25, 10 runs, after 10 days

| Compound | burst release [1] | TA released ([2]; PPcI 30% w/w PLGA 75/25, lamp intensity 50%, within 35 days) | TA released ([2]; PPcI 30% w/w PLGA 75/25, lamp intensity 100%, within 35 days) | amount of drug (TA) released on adding pore-forming agent ([2]; PPcI with 2% w/w MgCO3 versus without (FIG. 12)) | TA release ([2]; PPcI with PEGDA 700 Da, LI 25%) | TA release ([2]; PPcI with PEGDA 6000 Da, LI 25%) | TA released ([2]; PPcI with decreased PLGA concentration (FIG. 11: 2.5% w/w PLGA 75/25), LI 25%, within 14 days) | TA released ([2]; PPcI with low level of PLGA (FIG. 11: 5% w/w PLGA 75/25), LI 25%, within 14 days) |
| --- | --- | --- | --- | --- | --- | --- | --- | --- |
| C[C@@H]1C[C@H]2[C@@H]3CCC4=CC(=O)C=C[C@]4(C)[C@@]3(F)[C@@H](O)C[C@]2(C)[C@@]1(O)C(=O)CO [DEX, dexamethasone] | < 15% |  |  |  |  |  |  |  |
| CC1(C)O[C@@H]2C[C@H]3[C@@H]4CCC5=CC(=O)C=C[C@]5(C)[C@@]4(F)[C@@H](O)C[C@]3(C)[C@]2(C(=O)CO)O1 [TA, Triamcinolone acetonide] |  | ~75% | ~62% | can be increased | 11% | 77% | 52% | ~46% |
